Among the data in article PMC7434902 are binding values, retold here.

By UniProt entry, the sequences of proteins in these tests, tags left out.
UniProt P52732: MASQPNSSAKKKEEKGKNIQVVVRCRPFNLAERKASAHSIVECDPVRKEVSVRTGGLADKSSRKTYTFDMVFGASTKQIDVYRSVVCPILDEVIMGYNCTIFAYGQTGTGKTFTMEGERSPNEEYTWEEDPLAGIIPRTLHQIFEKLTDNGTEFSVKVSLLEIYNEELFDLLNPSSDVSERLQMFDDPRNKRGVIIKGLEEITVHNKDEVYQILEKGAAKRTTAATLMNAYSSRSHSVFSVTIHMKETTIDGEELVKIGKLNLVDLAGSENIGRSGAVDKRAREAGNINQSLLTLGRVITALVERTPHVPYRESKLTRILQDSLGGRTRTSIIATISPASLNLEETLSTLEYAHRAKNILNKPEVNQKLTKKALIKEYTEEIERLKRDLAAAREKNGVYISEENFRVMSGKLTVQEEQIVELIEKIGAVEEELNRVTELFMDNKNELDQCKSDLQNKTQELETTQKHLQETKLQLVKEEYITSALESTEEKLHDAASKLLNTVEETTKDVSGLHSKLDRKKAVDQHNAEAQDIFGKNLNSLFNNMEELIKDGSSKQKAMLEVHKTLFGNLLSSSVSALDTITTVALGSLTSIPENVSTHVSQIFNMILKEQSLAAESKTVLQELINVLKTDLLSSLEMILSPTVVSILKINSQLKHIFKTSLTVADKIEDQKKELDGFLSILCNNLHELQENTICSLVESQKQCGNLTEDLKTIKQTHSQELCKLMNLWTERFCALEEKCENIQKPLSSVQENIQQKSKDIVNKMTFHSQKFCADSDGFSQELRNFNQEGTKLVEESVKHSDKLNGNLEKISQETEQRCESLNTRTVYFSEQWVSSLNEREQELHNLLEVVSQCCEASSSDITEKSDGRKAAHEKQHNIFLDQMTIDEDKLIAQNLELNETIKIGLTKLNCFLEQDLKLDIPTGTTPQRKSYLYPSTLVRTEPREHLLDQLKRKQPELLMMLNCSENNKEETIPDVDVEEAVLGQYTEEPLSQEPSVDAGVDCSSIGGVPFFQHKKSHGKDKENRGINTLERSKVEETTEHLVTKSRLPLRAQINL
UniProt P08238: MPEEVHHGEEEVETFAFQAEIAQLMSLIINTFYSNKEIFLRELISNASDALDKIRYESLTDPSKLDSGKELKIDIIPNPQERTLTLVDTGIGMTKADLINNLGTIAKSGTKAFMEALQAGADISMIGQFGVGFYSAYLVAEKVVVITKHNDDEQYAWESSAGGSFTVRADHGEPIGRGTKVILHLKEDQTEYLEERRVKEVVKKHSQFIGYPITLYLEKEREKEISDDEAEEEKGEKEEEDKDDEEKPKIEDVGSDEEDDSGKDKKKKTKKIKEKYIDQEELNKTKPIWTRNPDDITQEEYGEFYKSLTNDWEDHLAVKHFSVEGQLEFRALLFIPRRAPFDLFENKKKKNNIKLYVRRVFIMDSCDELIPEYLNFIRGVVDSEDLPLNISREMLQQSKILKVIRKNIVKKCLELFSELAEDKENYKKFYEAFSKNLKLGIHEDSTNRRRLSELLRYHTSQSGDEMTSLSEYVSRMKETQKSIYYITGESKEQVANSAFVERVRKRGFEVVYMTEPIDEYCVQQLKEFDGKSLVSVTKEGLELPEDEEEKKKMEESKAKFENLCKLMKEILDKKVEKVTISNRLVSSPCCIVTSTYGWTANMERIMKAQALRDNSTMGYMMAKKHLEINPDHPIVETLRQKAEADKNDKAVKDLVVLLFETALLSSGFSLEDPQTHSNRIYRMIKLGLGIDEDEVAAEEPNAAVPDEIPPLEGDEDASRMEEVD
UniProt Q96A65: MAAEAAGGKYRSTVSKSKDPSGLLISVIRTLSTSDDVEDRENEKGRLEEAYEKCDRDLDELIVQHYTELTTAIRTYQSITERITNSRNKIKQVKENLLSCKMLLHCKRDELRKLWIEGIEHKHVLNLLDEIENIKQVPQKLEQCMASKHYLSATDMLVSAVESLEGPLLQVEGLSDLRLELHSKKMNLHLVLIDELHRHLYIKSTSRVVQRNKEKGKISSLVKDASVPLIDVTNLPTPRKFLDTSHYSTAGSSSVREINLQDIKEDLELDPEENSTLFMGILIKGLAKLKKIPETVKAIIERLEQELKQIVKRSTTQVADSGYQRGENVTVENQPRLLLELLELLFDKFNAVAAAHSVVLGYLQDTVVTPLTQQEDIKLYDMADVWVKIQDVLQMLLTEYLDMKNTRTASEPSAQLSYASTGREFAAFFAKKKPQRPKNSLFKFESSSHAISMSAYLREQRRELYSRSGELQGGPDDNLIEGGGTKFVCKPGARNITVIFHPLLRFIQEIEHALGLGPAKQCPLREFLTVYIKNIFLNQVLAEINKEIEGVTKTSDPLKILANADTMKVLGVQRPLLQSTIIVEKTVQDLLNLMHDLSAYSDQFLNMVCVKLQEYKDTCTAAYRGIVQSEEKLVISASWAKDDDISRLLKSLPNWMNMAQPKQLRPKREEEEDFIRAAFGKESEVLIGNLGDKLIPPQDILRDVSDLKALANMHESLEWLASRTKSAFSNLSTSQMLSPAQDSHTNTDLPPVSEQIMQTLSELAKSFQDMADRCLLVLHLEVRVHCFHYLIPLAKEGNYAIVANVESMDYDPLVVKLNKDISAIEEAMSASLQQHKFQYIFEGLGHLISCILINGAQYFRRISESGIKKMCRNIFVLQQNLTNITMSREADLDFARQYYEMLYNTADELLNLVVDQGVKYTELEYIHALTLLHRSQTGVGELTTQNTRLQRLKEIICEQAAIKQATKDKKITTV
UniProt P33176: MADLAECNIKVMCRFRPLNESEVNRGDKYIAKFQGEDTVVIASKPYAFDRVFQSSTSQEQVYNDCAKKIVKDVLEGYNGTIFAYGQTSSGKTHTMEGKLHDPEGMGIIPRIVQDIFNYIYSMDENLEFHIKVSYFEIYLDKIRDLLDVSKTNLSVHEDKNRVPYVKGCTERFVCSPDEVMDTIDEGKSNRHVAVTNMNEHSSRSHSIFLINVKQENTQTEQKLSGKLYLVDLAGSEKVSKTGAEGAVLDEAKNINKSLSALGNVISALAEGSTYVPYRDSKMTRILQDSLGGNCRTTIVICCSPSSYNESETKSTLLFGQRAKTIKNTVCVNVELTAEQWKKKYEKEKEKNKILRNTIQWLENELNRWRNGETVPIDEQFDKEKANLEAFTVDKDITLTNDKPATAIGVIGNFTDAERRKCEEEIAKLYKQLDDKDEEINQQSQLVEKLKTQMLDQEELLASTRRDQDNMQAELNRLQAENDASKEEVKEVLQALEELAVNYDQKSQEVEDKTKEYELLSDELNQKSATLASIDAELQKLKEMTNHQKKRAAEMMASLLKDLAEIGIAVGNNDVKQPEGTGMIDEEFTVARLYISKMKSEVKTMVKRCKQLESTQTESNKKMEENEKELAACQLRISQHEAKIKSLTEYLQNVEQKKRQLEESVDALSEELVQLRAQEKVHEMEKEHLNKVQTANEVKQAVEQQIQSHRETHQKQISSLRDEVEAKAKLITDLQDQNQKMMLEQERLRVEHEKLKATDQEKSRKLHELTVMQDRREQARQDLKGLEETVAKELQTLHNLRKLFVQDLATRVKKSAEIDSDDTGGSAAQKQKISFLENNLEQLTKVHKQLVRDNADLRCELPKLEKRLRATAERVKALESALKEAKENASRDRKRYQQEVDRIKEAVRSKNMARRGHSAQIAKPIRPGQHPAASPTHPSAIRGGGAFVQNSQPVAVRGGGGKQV
UniProt P68104: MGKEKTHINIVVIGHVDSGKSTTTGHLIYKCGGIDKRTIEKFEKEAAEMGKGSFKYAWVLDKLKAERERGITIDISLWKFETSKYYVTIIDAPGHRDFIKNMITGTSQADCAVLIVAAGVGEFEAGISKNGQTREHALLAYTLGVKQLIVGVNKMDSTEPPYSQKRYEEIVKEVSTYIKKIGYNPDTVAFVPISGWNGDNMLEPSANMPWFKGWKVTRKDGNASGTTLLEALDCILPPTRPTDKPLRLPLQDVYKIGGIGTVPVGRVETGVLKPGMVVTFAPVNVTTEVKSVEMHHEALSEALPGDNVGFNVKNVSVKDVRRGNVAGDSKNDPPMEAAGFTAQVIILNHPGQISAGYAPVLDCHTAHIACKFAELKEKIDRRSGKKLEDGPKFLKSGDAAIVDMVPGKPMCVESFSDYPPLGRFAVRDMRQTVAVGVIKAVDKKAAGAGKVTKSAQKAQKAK
UniProt Q14203: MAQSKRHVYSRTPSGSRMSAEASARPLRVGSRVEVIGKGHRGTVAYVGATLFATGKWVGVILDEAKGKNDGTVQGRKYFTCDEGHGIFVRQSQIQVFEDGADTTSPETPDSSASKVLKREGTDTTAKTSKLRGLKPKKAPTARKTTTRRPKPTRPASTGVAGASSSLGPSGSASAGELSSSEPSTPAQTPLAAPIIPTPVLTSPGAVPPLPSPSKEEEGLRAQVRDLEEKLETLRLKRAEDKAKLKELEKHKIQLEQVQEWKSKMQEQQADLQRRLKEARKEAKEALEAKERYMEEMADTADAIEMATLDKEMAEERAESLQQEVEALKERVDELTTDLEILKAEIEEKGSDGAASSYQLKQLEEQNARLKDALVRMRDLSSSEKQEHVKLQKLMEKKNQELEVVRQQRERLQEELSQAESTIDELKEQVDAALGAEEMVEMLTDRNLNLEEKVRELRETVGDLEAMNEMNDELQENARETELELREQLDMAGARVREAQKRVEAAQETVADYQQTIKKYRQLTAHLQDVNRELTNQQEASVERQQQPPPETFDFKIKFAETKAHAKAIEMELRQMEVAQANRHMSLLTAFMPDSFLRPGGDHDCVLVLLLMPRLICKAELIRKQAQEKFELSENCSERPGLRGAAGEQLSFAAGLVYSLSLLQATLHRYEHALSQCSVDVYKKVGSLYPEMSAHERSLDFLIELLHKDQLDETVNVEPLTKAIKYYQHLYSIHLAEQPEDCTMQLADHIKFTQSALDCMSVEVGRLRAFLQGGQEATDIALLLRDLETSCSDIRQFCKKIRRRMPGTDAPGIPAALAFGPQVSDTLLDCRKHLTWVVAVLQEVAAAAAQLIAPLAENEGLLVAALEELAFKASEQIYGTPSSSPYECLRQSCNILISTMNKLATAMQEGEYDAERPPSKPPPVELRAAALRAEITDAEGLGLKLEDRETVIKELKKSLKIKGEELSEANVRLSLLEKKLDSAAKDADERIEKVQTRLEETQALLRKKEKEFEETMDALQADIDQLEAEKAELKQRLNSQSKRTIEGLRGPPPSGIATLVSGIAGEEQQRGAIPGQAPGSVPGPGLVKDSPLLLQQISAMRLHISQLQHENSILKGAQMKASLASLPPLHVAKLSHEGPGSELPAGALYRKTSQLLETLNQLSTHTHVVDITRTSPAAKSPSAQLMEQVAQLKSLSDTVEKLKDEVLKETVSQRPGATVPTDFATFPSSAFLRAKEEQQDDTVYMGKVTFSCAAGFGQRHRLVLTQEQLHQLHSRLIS
UniProt O00410: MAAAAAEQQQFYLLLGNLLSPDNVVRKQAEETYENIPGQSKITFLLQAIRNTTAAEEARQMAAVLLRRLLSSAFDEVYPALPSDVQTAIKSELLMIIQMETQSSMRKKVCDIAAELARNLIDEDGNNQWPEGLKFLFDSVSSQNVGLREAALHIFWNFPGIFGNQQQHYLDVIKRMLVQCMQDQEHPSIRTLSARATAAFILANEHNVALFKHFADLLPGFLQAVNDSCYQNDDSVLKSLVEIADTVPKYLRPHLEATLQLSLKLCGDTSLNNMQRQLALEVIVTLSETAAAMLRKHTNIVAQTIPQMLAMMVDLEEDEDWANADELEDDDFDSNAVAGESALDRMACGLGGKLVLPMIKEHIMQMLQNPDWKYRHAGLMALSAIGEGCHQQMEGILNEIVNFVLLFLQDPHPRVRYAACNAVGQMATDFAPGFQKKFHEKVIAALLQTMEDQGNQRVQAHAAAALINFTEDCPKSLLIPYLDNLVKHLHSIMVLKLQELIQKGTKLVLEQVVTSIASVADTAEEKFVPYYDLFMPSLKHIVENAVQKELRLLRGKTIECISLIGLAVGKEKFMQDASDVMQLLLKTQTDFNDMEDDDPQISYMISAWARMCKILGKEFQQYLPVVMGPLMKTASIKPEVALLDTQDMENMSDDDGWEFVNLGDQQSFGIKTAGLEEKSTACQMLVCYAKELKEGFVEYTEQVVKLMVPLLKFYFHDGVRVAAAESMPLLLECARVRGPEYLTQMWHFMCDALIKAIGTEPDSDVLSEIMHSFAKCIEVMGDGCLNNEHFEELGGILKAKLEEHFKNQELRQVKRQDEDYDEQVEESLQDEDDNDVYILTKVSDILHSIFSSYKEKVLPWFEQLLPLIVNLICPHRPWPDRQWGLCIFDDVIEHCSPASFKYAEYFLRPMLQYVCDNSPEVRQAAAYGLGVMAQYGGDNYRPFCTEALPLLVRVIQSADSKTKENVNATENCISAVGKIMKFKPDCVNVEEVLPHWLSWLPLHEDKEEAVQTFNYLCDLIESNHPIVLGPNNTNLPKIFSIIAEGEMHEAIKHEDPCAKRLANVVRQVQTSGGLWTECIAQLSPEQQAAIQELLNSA

No constants are given. Whether binding was seen depends on the method and setting. In cells and extracts the contact can be indirect. These calls come from enrichment with a bait or labelling near it, and not all partners need be listed.

For this experiment, the target named is KIF11 (human (endogenous in RPE1)) (UniProt P52732). As to the kind of experiment: affinity purification with mass spectrometry; endogenous KIF11 immunoprecipitated (anti-KIF11 antibody on Dynabeads Protein G, overnight at 4 °C) from 25 mg of G0 synchronized RPE1 whole cell extract; LC-MS/MS on beads, or of the KIF11 band cut from a gel after boiling off the beads.

ATP2B4 (from UniProt P23634 1-1241): the binding result is listed as “binds”.
Under SF3B2 (from UniProt Q13435 1-895) stands “binds”; under PKM (from UniProt P14618 1-531), “binds”; under HSP90B1 (from UniProt P14625 22-803), “binds”.
On to HSP90AB1 (from UniProt P08238 1-724), for which the binding result is “binds”.
The result for GSN (from UniProt P06396 28-782) reads “binds”.
Under CLTC (from UniProt Q00610 1-1675) stands “binds”.
Under HSP90AA1 (from UniProt P07900 1-732) stands “binds”; under EXOC4 (from UniProt Q96A65 1-974), “binds”.
Regarding “KIF5B/Kinesin-1 (from UniProt P33176 1-963)”, the binding entry is on record as “binds”.
As for HSPA8 (from UniProt P11142 1-646), the binding result is reported as “binds”.
Regarding EEF1A1 (from UniProt P68104 1-462), the binding entry is listed as “binds”.
As for DCTN1 (from UniProt Q14203 1-1278), the binding result is given as “binds”.
With TUBB4B (from UniProt P68371 1-445), the binding result is “binds”.
The result for MYH10 (from UniProt P35580 1-1976) reads “binds”.
Take FLNA (from UniProt P21333 1-2647): the binding result is listed as “binds”.
Under SPTAN1 (from UniProt Q13813 1-2472) stands “binds”.
Under IPO5 (from UniProt O00410 1-1097) stands “binds”.

B1: ANXA1 (protein, UniProt P04083 1-346)
chain: MAMVSEFLKQAWFIENEEQEYVQTVKSSKGGPGSAVSPYPTFNPSSDVAALHKAIMVKGVDEATIIDILTKRNNAQRQQIKAAYLQETGKPLDETLKKALTGHLEEVVLALLKTPAQFDADELRAAMKGLGTDEDTLIEILASRTNKEIRDINRVYREELKRDLAKDITSDTSGDFRNALLSLAKGDRSEDFGVNEDLADSDARALYEAGERRKGTDVNVFNTILTTRSYPQLRRVFQKYTKYSKHDMNKVLDLELKGDIEKCLTAIVKCATSKPAFFAEKLHQAMKGVGTRHKALIRIMVSRSEIDMNDIKAFYQKMYGISLCQAILDETKGDYEKILVALCGGN
For the molecule B1, the binding result was “binds”.

B2: SEPT9 (protein, UniProt Q9UHD8 1-586)
chain: MKKSYSGGTRTSSGRLRRLGDSSGPALKRSFEVEEVETPNSTPPRRVQTPLLRATVASSTQKFQDLGVKNSEPSARHVDSLSQRSPKASLRRVELSGPKAAEPVSRRTELSIDISSKQVENAGAIGPSRFGLKRAEVLGHKTPEPAPRRTEITIVKPQESAHRRMEPPASKVPEVPTAPATDAAPKRVEIQMPKPAEAPTAPSPAQTLENSEPAPVSQLQSRLEPKPQPPVAEATPRSQEATEAAPSCVGDMADTPRDAGLKQAPASRNEKAPVDFGYVGIDSILEQMRRKAMKQGFEFNIMVVGQSGLGKSTLINTLFKSKISRKSVQPTSEERIPKTIEIKSITHDIEEKGVRMKLTVIDTPGFGDHINNENCWQPIMKFINDQYEKYLQEEVNINRKKRIPDTRVHCCLYFIPATGHSLRPLDIEFMKRLSKVVNIVPVIAKADTLTLEERVHFKQRITADLLSNGIDVYPQKEFDEDSEDRLVNEKFREMIPFAVVGSDHEYQVNGKRILGRKTKWGTIEVENTTHCEFAYLRDLLIRTHMQNIKDITSSIHFEAYRVKRLNEGSSAMANGMEEKEPEAPEM
Regarding B2, the binding result is on record as “binds”.

B3: HK1 (protein, UniProt P19367 1-917)
chain: MIAAQLLAYYFTELKDDQVKKIDKYLYAMRLSDETLIDIMTRFRKEMKNGLSRDFNPTATVKMLPTFVRSIPDGSEKGDFIALDLGGSSFRILRVQVNHEKNQNVHMESEVYDTPENIVHGSGSQLFDHVAECLGDFMEKRKIKDKKLPVGFTFSFPCQQSKIDEAILITWTKRFKASGVEGADVVKLLNKAIKKRGDYDANIVAVVNDTVGTMMTCGYDDQHCEVGLIIGTGTNACYMEELRHIDLVEGDEGRMCINTEWGAFGDDGSLEDIRTEFDREIDRGSLNPGKQLFEKMVSGMYLGELVRLILVKMAKEGLLFEGRITPELLTRGKFNTSDVSAIEKNKEGLHNAKEILTRLGVEPSDDDCVSVQHVCTIVSFRSANLVAATLGAILNRLRDNKGTPRLRTTVGVDGSLYKTHPQYSRRFHKTLRRLVPDSDVRFLLSESGSGKGAAMVTAVAYRLAEQHRQIEETLAHFHLTKDMLLEVKKRMRAEMELGLRKQTHNNAVVKMLPSFVRRTPDGTENGDFLALDLGGTNFRVLLVKIRSGKKRTVEMHNKIYAIPIEIMQGTGEELFDHIVSCISDFLDYMGIKGPRMPLGFTFSFPCQQTSLDAGILITWTKGFKATDCVGHDVVTLLRDAIKRREEFDLDVVAVVNDTVGTMMTCAYEEPTCEVGLIVGTGSNACYMEEMKNVEMVEGDQGQMCINMEWGAFGDNGCLDDIRTHYDRLVDEYSLNAGKQRYEKMISGMYLGEIVRNILIDFTKKGFLFRGQISETLKTRGIFETKFLSQIESDRLALLQVRAILQQLGLNSTCDDSILVKTVCGVVSRRAAQLCGAGMAAVVDKIRENRGLDRLNVTVGVDGTLYKLHPHFSRIMHQTVKELSPKCNVSFLLSEDGSGKGAALITAVGVRLRTEASS
For the molecule B3, the binding entry is recorded as “binds”.

B4: SEPT2 (protein, UniProt Q15019 1-361)
chain: MSKQQPTQFINPETPGYVGFANLPNQVHRKSVKKGFEFTLMVVGESGLGKSTLINSLFLTDLYPERVIPGAAEKIERTVQIEASTVEIEERGVKLRLTVVDTPGYGDAINCRDCFKTIISYIDEQFERYLHDESGLNRRHIIDNRVHCCFYFISPFGHGLKPLDVAFMKAIHNKVNIVPVIAKADTLTLKERERLKKRILDEIEEHNIKIYHLPDAESDEDEDFKEQTRLLKASIPFSVVGSNQLIEAKGKKVRGRLYPWGVVEVENPEHNDFLKLRTMLITHMQDLQEVTQDLHYENFRSERLKRGGRKVENEDMNKDQILLEKEAELRRMQEMIARMQAQMQMQMQGGDGDGGALGHHV
In the case of B4, the binding entry is “binds”.
